This assay concerns the target CCR9 C1 (CCR9-RlucII with S335A/T347A/S352A/S356A/S357A) (human) (UniProt P51686). The assay is described as follows: FRET or BRET; live HEK293 cells (parental; also ΔGRK2/3 and ΔGRK5/6 cells, where recruitment was only partially impacted) co-transfected with CCR9-RlucII (WT or ST/A mutants) and GFP10-β-arrestin2; 200 nM CCL25 or a titration of CCL25; HBSS + 0.1% BSA, Prolume Purple, 37 °C. In general terms: Bioluminescence resonance energy transfer reports proximity on the nanometre scale.

Protein sequences, listed by entry. Tags and fused reporters are not part of them. Lines headed by an entry give the natural chain unless they say otherwise; changes in a name come on top.
UniProt P51686: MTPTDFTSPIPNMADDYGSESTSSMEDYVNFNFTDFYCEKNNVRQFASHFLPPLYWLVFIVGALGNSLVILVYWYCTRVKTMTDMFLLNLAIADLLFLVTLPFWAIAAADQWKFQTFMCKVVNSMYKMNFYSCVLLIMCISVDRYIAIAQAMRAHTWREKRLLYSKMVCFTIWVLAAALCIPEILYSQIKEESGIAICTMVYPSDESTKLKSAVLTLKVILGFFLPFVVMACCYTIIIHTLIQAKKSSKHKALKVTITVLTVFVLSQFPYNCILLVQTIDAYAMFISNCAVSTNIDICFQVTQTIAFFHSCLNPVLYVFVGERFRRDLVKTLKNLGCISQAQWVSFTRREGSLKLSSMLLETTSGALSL

These are yes or no findings as the source states them, for the method shown. Binding seen in cells or lysates may run through a third protein. Binding can be weak; no strength is given.

On to “GFP10-β-arrestin2 (from UniProt P32121 1-409)”, for which the binding entry was “binds”.

The values above are taken from paper PMC12147180.
